Some of the results follow. The exact form of the protein is not confirmed.
These sequences were tested against T1, ETV4 (UniProt P43268) (assay: DAPPL (digital affinity profiling via proximity ligation, sequencing)). Details: 10 mM Tris-HCl pH 7.5, 50 mM NaCl, 1 mM DTT, 4% glycerol, room temperature, 30 min; GST-TFs on glutathione beads, 16-mer random dsDNA library, 0.1% …; high values mean tight binding; double strand, one strand shown; scale: fold enrichment (6-mer frequency, TF over GST control).
T1 sequence: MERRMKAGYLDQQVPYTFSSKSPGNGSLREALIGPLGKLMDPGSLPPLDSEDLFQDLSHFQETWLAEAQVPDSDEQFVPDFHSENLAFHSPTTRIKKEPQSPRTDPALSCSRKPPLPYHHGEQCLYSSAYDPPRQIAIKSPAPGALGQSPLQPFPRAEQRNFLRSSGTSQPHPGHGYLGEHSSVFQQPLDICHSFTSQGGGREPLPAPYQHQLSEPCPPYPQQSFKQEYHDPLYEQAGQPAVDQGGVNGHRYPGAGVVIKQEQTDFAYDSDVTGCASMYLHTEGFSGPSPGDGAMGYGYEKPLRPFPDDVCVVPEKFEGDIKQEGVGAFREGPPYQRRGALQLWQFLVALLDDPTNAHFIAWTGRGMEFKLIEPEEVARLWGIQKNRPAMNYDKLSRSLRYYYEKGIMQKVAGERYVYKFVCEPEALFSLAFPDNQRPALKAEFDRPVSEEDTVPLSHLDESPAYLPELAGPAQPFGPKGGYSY

Sequence | binding signal
ACTCTT | 1.28
AATTGC | 1.38
ATTCCC | 1.45
ACATTC | 1.35
AAGCAG | 0.981
TCAATA | 1.16
TTTAGG | 1.1
CTTCTG | 1.56
AAAACT | 1.2
GCCAAT | 1.09
TTTCTT | 1.32
GGAAAC | 1.33
AACAAT | 1.3
AGGTAT | 1.02
TCTCAC | 1.37
GTAAAA | 1.16
ATAGCA | 1.07
CTTGTT | 1.27
TAACCC | 1.32
TCCCTC | 1.66

Sequence | binding signal
TTCCGT | 1.8
GATACT | 1.1
CCTGGA | 1.38
CTAAGC | 1.02
TACGTT | 1.27
GATACG | 1.05
CCGTAA | 1.13
TCGCCT | 1.39
TGCTAT | 1.4
GTTTAA | 1.03
TTCTCG | 1.47
CGGCTC | 1.27
TTAACC | 1.21
TCTAAT | 1.18
AGAAGC | 1.17
CTCCTC | 1.31
ATCCCT | 1.38
ATGTCA | 1.2
CTCTGG | 1.41
ATTATT | 1.18

Some of the entries so far, as a markdown table.

| Sequence | binding signal |
| --- | --- |
| TGCTAT | 1.4 |
| GTTTAA | 1.03 |
| TTCTCG | 1.47 |
| CGGCTC | 1.27 |
| TTAACC | 1.21 |
| TCTAAT | 1.18 |
| AGAAGC | 1.17 |

— PMC7862700
